Data: publication PMC11733299
These are yes or no findings as the source states them, for the method shown. Some entries that bind do so weakly or less than the wild type.

Assays:
Experiment in all cases: two-hybrid; mating-based split-ubiquitin system (mbSUS); CNGC (full length or TM domains) in pMetYCgate (Cub), CPK1 in pNXgate32-3HA (Nub); yeast THY.AP4; growth on SD/-Leu-Trp-His-Ade
[1] = molecular target: T1, CNGC6-M (aa117-428) in pMetYCgate (Cub) (Arabidopsis thaliana) (UniProt O82226)
T1 sequence: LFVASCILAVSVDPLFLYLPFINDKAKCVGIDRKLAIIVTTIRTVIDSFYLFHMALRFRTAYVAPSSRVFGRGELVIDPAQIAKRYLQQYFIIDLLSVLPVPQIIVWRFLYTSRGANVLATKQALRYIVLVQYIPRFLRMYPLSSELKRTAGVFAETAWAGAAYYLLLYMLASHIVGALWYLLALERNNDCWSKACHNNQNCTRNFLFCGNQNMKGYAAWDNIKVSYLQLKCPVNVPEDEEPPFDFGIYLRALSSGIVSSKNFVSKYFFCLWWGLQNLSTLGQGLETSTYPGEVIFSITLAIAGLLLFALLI

[2] = molecular target: T2, CNGC9-M (aa118-427) in pMetYCgate (Cub) (Arabidopsis thaliana) (UniProt Q9M0A4)
T2 sequence: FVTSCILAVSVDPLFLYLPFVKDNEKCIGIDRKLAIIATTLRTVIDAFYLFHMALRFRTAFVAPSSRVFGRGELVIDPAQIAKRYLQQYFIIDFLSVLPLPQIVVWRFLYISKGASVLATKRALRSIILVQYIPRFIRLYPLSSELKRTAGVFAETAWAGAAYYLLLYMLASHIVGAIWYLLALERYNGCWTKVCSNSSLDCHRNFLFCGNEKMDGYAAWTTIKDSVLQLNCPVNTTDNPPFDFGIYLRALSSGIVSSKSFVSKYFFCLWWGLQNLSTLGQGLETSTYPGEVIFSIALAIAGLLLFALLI

[3] = molecular target: T3, full-length CNGC9 in pMetYCgate (Cub) (Arabidopsis thaliana) (UniProt Q9M0A4)
T3 sequence: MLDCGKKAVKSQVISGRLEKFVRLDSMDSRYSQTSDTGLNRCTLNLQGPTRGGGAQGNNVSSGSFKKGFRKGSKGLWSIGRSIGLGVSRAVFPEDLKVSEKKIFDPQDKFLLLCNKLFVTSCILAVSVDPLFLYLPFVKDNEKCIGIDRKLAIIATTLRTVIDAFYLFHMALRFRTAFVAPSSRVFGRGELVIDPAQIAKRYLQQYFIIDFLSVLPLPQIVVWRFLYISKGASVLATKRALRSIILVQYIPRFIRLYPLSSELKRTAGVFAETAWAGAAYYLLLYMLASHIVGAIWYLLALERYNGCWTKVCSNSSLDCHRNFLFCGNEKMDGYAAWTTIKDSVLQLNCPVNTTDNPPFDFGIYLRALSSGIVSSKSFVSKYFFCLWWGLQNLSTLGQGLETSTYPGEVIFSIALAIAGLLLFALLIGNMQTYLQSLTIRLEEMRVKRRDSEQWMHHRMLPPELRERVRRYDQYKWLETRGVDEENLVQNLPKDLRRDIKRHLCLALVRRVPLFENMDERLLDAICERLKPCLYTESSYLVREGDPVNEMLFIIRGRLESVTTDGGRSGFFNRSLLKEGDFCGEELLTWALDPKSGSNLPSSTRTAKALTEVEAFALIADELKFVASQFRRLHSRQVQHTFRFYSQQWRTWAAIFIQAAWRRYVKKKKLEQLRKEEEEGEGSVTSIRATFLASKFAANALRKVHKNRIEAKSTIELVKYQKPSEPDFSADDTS

[4] = molecular target: T4, CNGC14-M (aa102-410) in pMetYCgate (Cub) (Arabidopsis thaliana) (UniProt Q9SJA4)
T4 sequence: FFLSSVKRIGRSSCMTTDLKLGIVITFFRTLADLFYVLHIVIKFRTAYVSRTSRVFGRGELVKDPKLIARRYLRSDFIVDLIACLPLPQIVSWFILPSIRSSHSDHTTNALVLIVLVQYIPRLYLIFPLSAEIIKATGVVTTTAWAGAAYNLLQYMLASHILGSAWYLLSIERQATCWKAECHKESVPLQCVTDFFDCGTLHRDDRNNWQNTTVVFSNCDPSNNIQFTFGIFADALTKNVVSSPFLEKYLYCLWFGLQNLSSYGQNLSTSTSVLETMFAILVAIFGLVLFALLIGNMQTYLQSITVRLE

B1: Nub-CPK1 (calcium dependent protein kinase 1 in pNXgate32-3HA) (enzyme, UniProt Q06850 1-610)
chain: MGNTCVGPSRNGFLQSVSAAMWRPRDGDDSASMSNGDIASEAVSGELRSRLSDEVQNKPPEQVTMPKPGTDVETKDREIRTESKPETLEEISLESKPETKQETKSETKPESKPDPPAKPKKPKHMKRVSSAGLRTESVLQRKTENFKEFYSLGRKLGQGQFGTTFLCVEKTTGKEFACKSIAKRKLLTDEDVEDVRREIQIMHHLAGHPNVISIKGAYEDVVAVHLVMECCAGGELFDRIIQRGHYTERKAAELTRTIVGVVEACHSLGVMHRDLKPENFLFVSKHEDSLLKTIDFGLSMFFKPDDVFTDVVGSPYYVAPEVLRKRYGPEADVWSAGVIVYILLSGVPPFWAETEQGIFEQVLHGDLDFSSDPWPSISESAKDLVRKMLVRDPKKRLTAHQVLCHPWVQVDGVAPDKPLDSAVLSRMKQFSAMNKFKKMALRVIAESLSEEEIAGLKEMFNMIDADKSGQITFEELKAGLKRVGANLKESEILDLMQAADVDNSGTIDYKEFIAATLHLNKIEREDHLFAAFTYFDKDGSGYITPDELQQACEEFGVEDVRIEELMRDVDQDNDGRIDYNEFVAMMQKGSITGGPVKMGLEKSFSIALKL
binding [1]: no binding
binding [2]: no binding
binding [3]: binds
binding [4]: no binding
